Measurements from CN113912729A.
Results are given in words; binding and its absence hold for the method and conditions named. Some entries that bind do so weakly or less than the wild type.

Key:
可溶性生长刺激表达基因2蛋白(sST2)标准样品 = 可溶性生长刺激表达基因2蛋白(sST2)标准样品 (UniProt Q01638); assay: ELISA, sST2 coated at 100 ng/100 uL, purified VHH, HRP anti-HA detection, P/N of OD450
[1] = biological target: 生物素标记的sST2蛋白(sST2-Biotin) (UniProt Q01638); assay: ELISA of crude periplasmic extracts on sST2-Biotin captured by neutravidin; positive if OD450 more than 5x control

| Binder | binding (可溶性生长刺激表达基因2蛋白(sST2)标准样品) | binding [1] |
| --- | --- | --- |
| 单域抗体1A10 (VHH) VHH: ESGGGSVQPGGSLRLSCAASGATFINWSMGWFRQAPGKEREVVAAIESGGSPTYADSVKDRFTLSTDVAKNILYLQMNSLKPADTAMYYCAAKKVWAREFAYWGQGTQVTVSS | binds | binds |
| 单域抗体2F1 (VHH) VHH: ESGGGSVQSGGSLRLSCAASGYTFRRYCMGWFRQAPGKEREGVAVLYTGVDITYYADSVKGRFTISQDNAKKTLYLQMNSLKPEDTALYYCAADSGPLCGLGIQFGYWGQGTQVTVSS | binds | binds |
| 单域抗体2F4 (VHH) VHH: ESGGGSVQAGGSLRLSCAASGYTINYRMGWFRQAPGKEREGVAMASAISEDYADSVKGRFSISRDSAKNTLYLQMNSLKPEDTGMYYCAAGRVWGRLWNPDDYNSWGQGTQVTVSS | binds | binds |
| 单域抗体2F9 (VHH) VHH: ESGGGSVQAGGSLRLSCTASGITYSRNCLGWFRQAPGKEREWVATIYTSTGTTYFDDSVKGRFTISQDNAKNTLYLQMNSLKPEDTAMYYCAAAVSGWSVCSRSTKYNYWGHGTQVTVSS | binds | binds |
| 单域抗体3A10 (VHH) VHH: ESGGGSVQTGGSLRLSCAASGYTYSSYCMAWFRQAPGKEREGVAALDSDGSTTYADSVKGRFTVSKDNAKNTLYLQMNSLKPEDTAMYYCAADLTCYCSDGYCYNGDEYNYWGQGTQVTVSS | binds | binds |
| 单域抗体3B1 (VHH) VHH: ESGGGSVQAGGSLRLSCVASGVTFSRSCIGWFRQIPGKEREGVAVVYTGGRSIDYSAYVDSVKGRFTISHDNAWNTVYLQMNSLKPEDTAMYYCAADFLLQEPCTVLSSRGFKFWGQGTQVTVSS | binds | binds |
| 单域抗体3B7 (VHH) VHH: ESGGGSVQAGGSLRLSCAASEYAYINYCMGWFRQVPGKEREGVAVICSGGGATYYTDSVKGRFTISQDGAKYTLYLQMNSLKPEDTAMYYCAAGRRPYYSGAYFRTADYNYWGQGTQVTVSS | binds | binds |
| 单域抗体3C5 (VHH) VHH: ESGGGSAQAGGSLRLSCTASGSGYFYSRLCMGWFRQAPGTGREAVATSYPGIGSTYYADSVKGRFTISQDNAKNTMYLQMNSLKPEDTAMYYCAADATWNTCGITKTTYAYWGQGTQVTVSS | binds | binds |
| 单域抗体3C8 (VHH) VHH: ESGGGSVQAGGSLRLSCAASGYTYSRYCMGWFRQTPGKGREGVASINSDGTTIYGNFVKGRFTISEDNAKNTLYLQMNSLKPEDTAMYYCAARVDSTCAPMPSWFTYWGQGTQVTVSS | binds | binds |
| 单域抗体4A1 (VHH) VHH: ESGGGSVQAGGSLRVSCAASGYTYSSYCMGWFRQAPGKEREGVASIDSRGSTTYADSLKGRFTISKDNAKNTLYLQMNNLKPEDTAKYYCAAGDGYGLEHICIPHYYAMNYWGEGTQVTVSS | binds | binds |
| 单域抗体1A7 (VHH) VHH: ESGGGSVQAGGSLRLSCAASGYIYSRNCVGWFRQAPGKEREGIAALYTAGGYTYYSASVKGRFTISQDNAKNTVYLQMNSLKPEDTAMYYCAAARPSNSLTCGIATITTDDVWGQGTQVTVSS | binds | binds |
| 单域抗体4D2 (VHH) VHH: ESGGGSVQAGGSLRLSCAASGFTYRRACMGWFRQAPGKEREGVAAIYTSGGMTFYDASVRGRFTISQDNAKNTVYLQMNSLKPEDTATYYCAAGGGDYCATNARFFNYWGQGTQVTVSS | binds | binds |
| 单域抗体1A9 (VHH) VHH: ESGGGSVQAGGSLRLSCAASGYTYSTYCMAWFRQALGKEREGVAGIDSDGSTTYADSVKGRFTISKDNAKDTLYLQMDSLKPEDTAMYYCAALSPRCDFDRSSRVTNWGQGTQVTVSS | binds | binds |
| 单域抗体1B2 (VHH) VHH: ESGGGSVQAGGSLRLSCATSGVTYRRTCMGWFRQAPGKEREGVAAIYTSGGFTFYADSVKGRFTISQDNAKNTLYLQMNTLKPEDTGIYYCAAEAGDECSASSVFRSWGQGTQVTVSS | binds | binds |
| 单域抗体1B5 (VHH) VHH: ESGGGSVQAGGSLRLSCAASGYTYSGICMGWFRQAPGKEREGVAAIYTNGEYTYYADSVKGRFTISQDNAKNTVYLQMNSLKPEDTAMYYCAADRNTCGLRGDFYNYWGQGTQVTVSS | binds | binds |
| 单域抗体2B4 (VHH) VHH: ESGGGSVQAGGSLRLSCTASGFTFGDADMGWYRQAPGNECELVSSLGDNGSTYYADSVKGRFTISQDNAKNTVYLQMNSLKPEDTAVYYCAAERLWTASTVVPDTPCLDEIEDFGYWGRGTQVTVSS | binds | binds |
| 单域抗体2C2 (VHH) VHH: ESGGGSVQAGGSLRLSCVVSGNMYRRNCIGWFRQAPGKEREGVAAIYTAGGYSYYGDSVKGRFTISQDNPKNTVYLQMNNLKPEDTAMYYCATDGRDGDLCAARSDFRYWGQGTQVTVSS | binds | binds |
